{"source": "PubChem BioAssay AID504791 (Drosophila RNAi Screening Center, 2011)", "assay": "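Factors in Argonaute-based small RNA production and activity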 (primary screen)", "system": "Drosophila S2-derived reporter cells", "reagents": "long dsRNA against Drosophila genes, about 150-250 ng dsRNA per well (siRNA assay); about 80-120 ng (miRNA assay)", "timing": "about 5 days (siRNA assay); about 4 days (miRNA assay)", "conditions": "copper sulfate induction of reporters: 25 µM (siRNA assay); 200 mM stated (miRNA assay), 1-2 days before reading", "read-out": "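Per-well ratio of Renilla over firefly light, expressed relative to that plate's average ratio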", "units": "stable assay Renilla, run 1 in luminescence; stable assay firefly, run 1 in luminescence", "rule for the call": "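First-pass picks had plate-scaled ratios over 1.5 for the siRNA assay, over 1.6 for the miRNA assay, or under 0.6; two distinct dsRNAs had to score alike on retest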", "note": "In all, the deposit lists about 23,000 reagents; below is an unselected part of those that have a named target and a result. In the full data, 199 (0.86%) got an active call. 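Plate-scaled ratios behind the calls are not deposited; printed light signals are raw; many rows marked increased or decreased are still called inactive.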 Entries without a mark were called inactive. The record does not give: the direction of the score."}
{"gene knocked down": "lili (lilipod)", "dsRNA": "DRSC14143", "stable assay Renilla, run 1": 8071, "stable assay firefly, run 1": 2.96e5}
{"gene knocked down": "RpL37-2 (Ribosomal protein L37-2)", "dsRNA": "DRSC04584", "stable assay Renilla, run 1": 6599, "stable assay firefly, run 1": 3.56e5}
{"gene knocked down": "CG9837", "dsRNA": "DRSC16573", "stable assay Renilla, run 1": 6903, "stable assay firefly, run 1": 4.17e5}
{"gene knocked down": "CNPYb (Canopy b)", "dsRNA": "DRSC09845", "stable assay Renilla, run 1": 7966, "stable assay firefly, run 1": 2.72e5}
{"gene knocked down": "Nup358 (Nucleoporin 358kD)", "dsRNA": "DRSC14410", "stable assay Renilla, run 1": 11324, "stable assay firefly, run 1": 4.57e5}
{"gene knocked down": "Atg16 (Autophagy-related 16)", "dsRNA": "DRSC15052", "stable assay Renilla, run 1": 8967, "stable assay firefly, run 1": 7.45e5}
{"gene knocked down": "Atg16 (Autophagy-related 16)", "dsRNA": "DRSC15300", "stable assay Renilla, run 1": 6231, "stable assay firefly, run 1": 3.53e5}
{"gene knocked down": "Atg16 (Autophagy-related 16)", "dsRNA": "DRSC15375", "stable siRNA reporter change": "reporter ratio raised past the hit cutoff", "stable assay Renilla, run 1": 6742, "stable assay firefly, run 1": 2.53e5}
{"gene knocked down": "CG34367", "dsRNA": "DRSC02238", "stable assay Renilla, run 1": 6748, "stable assay firefly, run 1": 3.22e5}
{"gene knocked down": "CG34367", "dsRNA": "DRSC02850", "stable assay Renilla, run 1": 6423, "stable assay firefly, run 1": 3.03e5}
{"gene knocked down": "Tmem63 (Transmembrane protein 63)", "dsRNA": "DRSC06063", "stable assay Renilla, run 1": 6803, "stable assay firefly, run 1": 4.32e5}
{"gene knocked down": "CG34292", "dsRNA": "DRSC13807", "stable assay Renilla, run 1": 6000, "stable assay firefly, run 1": 3.46e5}
{"gene knocked down": "CG31296", "dsRNA": "DRSC13092", "stable assay Renilla, run 1": 5162, "stable assay firefly, run 1": 3.49e5}
{"gene knocked down": "CG18178", "dsRNA": "DRSC10302", "stable assay Renilla, run 1": 9414, "stable assay firefly, run 1": 4.01e5}
{"gene knocked down": "CG31870", "dsRNA": "DRSC21681", "stable assay Renilla, run 1": 9623, "stable assay firefly, run 1": 6.05e5}
{"gene knocked down": "CG12541", "dsRNA": "DRSC17483", "stable assay Renilla, run 1": 5315, "stable assay firefly, run 1": 4.11e5}
{"gene knocked down": "CG12541", "dsRNA": "DRSC17839", "stable assay Renilla, run 1": 6131, "stable assay firefly, run 1": 4.38e5}
{"gene knocked down": "CG13733", "dsRNA": "DRSC10061", "stable assay Renilla, run 1": 8274, "stable assay firefly, run 1": 4.18e5}
{"gene knocked down": "CG7655", "dsRNA": "DRSC16275", "stable assay Renilla, run 1": 9313, "stable assay firefly, run 1": 3.72e5}
{"gene knocked down": "CG18476", "dsRNA": "DRSC15281", "stable assay Renilla, run 1": 7406, "stable assay firefly, run 1": 4.76e5}
{"gene knocked down": "narya", "dsRNA": "DRSC19439", "stable assay Renilla, run 1": 7618, "stable assay firefly, run 1": 4.91e5}
{"gene knocked down": "CG12288", "dsRNA": "DRSC02155", "stable assay Renilla, run 1": 7598, "stable assay firefly, run 1": 4.15e5}
{"gene knocked down": "CG3032", "dsRNA": "DRSC18266", "stable assay Renilla, run 1": 5672, "stable assay firefly, run 1": 2.84e5}
{"gene knocked down": "Tsp97E (Tetraspanin 97E)", "dsRNA": "DRSC16019", "stable assay Renilla, run 1": 7727, "stable assay firefly, run 1": 4.23e5}
{"gene knocked down": "hts (hu li tai shao)", "dsRNA": "DRSC07629", "stable assay Renilla, run 1": 6495, "stable assay firefly, run 1": 2.87e5}
{"gene knocked down": "NELF-B", "dsRNA": "DRSC17734", "miRNA reporter change": "reporter ratio lowered past the hit cutoff (active)", "stable assay Renilla, run 1": 7939, "stable assay firefly, run 1": 5.69e5}
{"gene knocked down": "TyrRII (Tyramine receptor II)", "dsRNA": "DRSC15150", "stable assay Renilla, run 1": 6618, "stable assay firefly, run 1": 4.46e5}
{"gene knocked down": "CG7506", "dsRNA": "DRSC10860", "stable assay Renilla, run 1": 8016, "stable assay firefly, run 1": 5.51e5}

Targets above whose gene name starts with N or n:
{"gene knocked down": "Nup358 (Nucleoporin 358kD)", "dsRNA": "DRSC14410", "stable assay Renilla, run 1": 11324, "stable assay firefly, run 1": 4.57e5}
{"gene knocked down": "narya", "dsRNA": "DRSC19439", "stable assay Renilla, run 1": 7618, "stable assay firefly, run 1": 4.91e5}
{"gene knocked down": "NELF-B", "dsRNA": "DRSC17734", "miRNA reporter change": "reporter ratio lowered past the hit cutoff (active)", "stable assay Renilla, run 1": 7939, "stable assay firefly, run 1": 5.69e5}
